# The list shows a part of the results. Single values are uncertain here, since repeats match poorly.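 Fusion between ACE2-bearing and full-length-spike-bearing U2OS cells was measured by imaging as the percentage of nuclei with both cell types' fluorescent markers. An inhibitory hit is a non-toxic compound whose fusion z-score is below -3, more than three standard deviations beneath the plate's DMSO wells.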
# Tested on: U2OS ACE2 x SARS-CoV-2 spike co-culture
# Assay: cell-cell fusion (fraction fused) z-score vs plate DMSO control; higher = more fusion
# Details: 30 µM; 5 h; toxicity class: non-toxic, passed QC
row,SMILES,cell-cell fusion (z-score)
1,CC1OC(O[C@H]2/C=C/C=C/C=C/C=C/C=C/C=C/C=C/[C@H](C)[C@@H](O)[C@@H](C)[C@H](C)OC(=O)CC(O)CC(O)CCC(O)C(O)CC(O)C[C@]3(O)C[C@H](O)C(C(=O)O)C(C2)O3)C(O)[C@H](N)C1O (stereo not given in full),inactive: 1.92
2,Cc1nc2n(c(=O)c1CCN1CCC(c3noc4cc(F)ccc34)CC1)CCCC2,inactive: 1.88
3,CC(=O)O.Cc1cc2c(C(C)C)c(O)c(O)c(C=O)c2c(O)c1-c1c(C)cc2c(C(C)C)c(O)c(O)c(C=O)c2c1O,active: -5.38
4,Cl.N=c1ccn2c(n1)OC1[C@@H](O)[C@@H](CO)O[C@H]12 (stereo not given in full) [Ancitabine hydrochloride],inactive: 1.66
5,Br.CCCN(CCC)[C@@H]1CCc2ccc(O)cc2C1 [R-(+)-7-Hydroxy-DPAT hydrobromide],inactive: -2.69
6,COCCc1ccc(OCC(O)CNC(C)C)cc1.COCCc1ccc(OCC(O)CNC(C)C)cc1.O=C(O)[C@H](O)[C@@H](O)C(=O)O (stereo not given) [Metoprolol tartrate],inactive: 2.73
7,CC(C)NCC(O)COc1cccc2[nH]ccc12 (stereo not given),inactive: 0.298
8,CC(C)NCC(O)COc1cccc2[nH]ccc12 (stereo not given) [Pindolol],inactive: 0.689
9,CCCSc1ccc2nc(NC(=O)OC)[nH]c2c1 [Albendazole],inactive: 3.02
10,N[C@@H](CCC(=O)N[C@H](CSN=O)C(=O)NCC(=O)O)C(=O)O [S-Nitrosoglutathione],inactive: 2.48
11,COc1ccc(OCC2c3cc(OC)c(OC)cc3CCN2C(=O)c2cccc(Cl)c2)cc1 (stereo not given),inactive: -2.42
12,CC(=O)Oc1ccc(C(c2ccc(OC(C)=O)cc2)c2ccccn2)cc1,inactive: 1.37
13,CCCN(CCc1ccccc1)C1CCc2c(O)cccc2C1.Cl (racemic) [(±)-PPHT hydrochloride],inactive: 0.633
14,Cc1ccccc1C(=O)Nc1ccc(C(=O)N2CCCC(O)c3cc(Cl)ccc32)c(C)c1 (stereo not given) [Tolvaptan],inactive: 1.42
15,C=C1[C@H](CO)[C@@H](O)C[C@@H]1n1cnc2c(=O)[nH]c(N)nc21 [Entecavir],inactive: 2.51
16,Nc1nc(Cl)nc2c1ncn2[C@H]1C[C@H](O)[C@@H](CO)O1 [Cladribine],inactive: 0.435
17,CC(=O)N(CC(O)CO)c1c(I)c(C(=O)NCCO)c(I)c(C(=O)NCC(O)CO)c1I (stereo not given),inactive: 1.86
18,O=c1oc2c(O)c(O)cc3c(=O)oc4c(O)c(O)cc1c4c23,inactive: 1.49
19,O=C1c2ccccc2-c2nc3nonc3nc21,inactive: 0.176
20,C=C1CC2OC2(C)CC[C@@H]2[C@@H]1CC2(C)C (stereo not given in full),inactive: 1.93
21,Cc1ccc(O)c(N=Nc2ccccc2)n1,inactive: 0.803
22,CN(C)c1nc(N(C)C)nc(N(C)C)n1,inactive: 3.77
23,CN(C)c1nc(N(C)C)nc(N(C)C)n1 [Altretamine],inactive: 2.04
24,COC(=O)CCC(=O)CN.Cl [Methyl Aminolevulinate Hydrochloride],inactive: 0.704
25,Cl.OC(c1cc(C(F)(F)F)nc2c(C(F)(F)F)cccc12)C1CCCCN1 (stereo not given),inactive: 2.61

# Pulled one by one from above (4):
row,SMILES,cell-cell fusion (z-score)
17,CC(=O)N(CC(O)CO)c1c(I)c(C(=O)NCCO)c(I)c(C(=O)NCC(O)CO)c1I (stereo not given),inactive: 1.86
11,COc1ccc(OCC2c3cc(OC)c(OC)cc3CCN2C(=O)c2cccc(Cl)c2)cc1 (stereo not given),inactive: -2.42
6,COCCc1ccc(OCC(O)CNC(C)C)cc1.COCCc1ccc(OCC(O)CNC(C)C)cc1.O=C(O)[C@H](O)[C@@H](O)C(=O)O (stereo not given) [Metoprolol tartrate],inactive: 2.73
25,Cl.OC(c1cc(C(F)(F)F)nc2c(C(F)(F)F)cccc12)C1CCCCN1 (stereo not given),inactive: 2.61

# Later entries

row,SMILES,cell-cell fusion (z-score)
1,OC[C@@H](O)[C@@H](O)[C@@H](O)[C@H](O)[C@@H](O)CO,inactive: 2.62
2,CN[C@H](CC(=O)O)C(=O)O [N-Methyl-D-aspartic acid],inactive: 2.93
3,CN[C@H](CC(=O)O)C(=O)O,inactive: 2.95
4,O=C1/C(=C/c2cccs2)CCC/C1=C\c1cccs1,inactive: 3.29
5,Br.CC[C@H]1CN2CCC1C[C@@H]2[C@H](O)c1ccnc2ccc(OC)cc12.O (stereo not given in full),inactive: 2.78
6,COc1ccc2cc([C@H](C)C(=O)[O-])ccc2c1.[Na+] [(-)-Naproxen sodium],inactive: 2.43
7,CCOC(=O)O[C@]1(C(=O)OCCl)CC[C@H]2[C@@H]3CCC4=CC(=O)C=C[C@]4(C)[C@H]3[C@@H](O)C[C@@]21C [Loteprednol etabonate],inactive: 3.42
8,NS(=O)(=O)Cc1noc2ccccc12 [Zonisamide],inactive: 2.31
9,CCCCCN(C)CCC(O)(P(=O)([O-])O)P(=O)(O)O.[Na+] [Ibandronate sodium],inactive: 2.26
10,Nc1ccc(C(=O)NCC(=O)O)cc1 [4-Aminohippuric Acid],inactive: 3.07
11,CCCS(=O)(=O)Nc1ccc(F)c(C(=O)c2c[nH]c3ncc(-c4ccc(Cl)cc4)cc23)c1F [Vemurafenib (PLX4032)],inactive: 2.07
12,"CCCS(=O)(=O)Nc1ccc(F)c(C(=O)c2c[nH]c3ncc(-c4ccc(Cl)cc4)cc23)c1F [Vemurafenib (PLX4032, RG7204)]",inactive: 1.59
13,O=C(O)c1ccc(-n2nc(-c3ccccc3O)nc2-c2ccccc2O)cc1 [Deferasirox],inactive: 1.98
14,Nc1nc(=O)c2nc(CNc3ccc(C(=O)N[C@@H](CCC(=O)O)C(=O)O)cc3)cnc2[nH]1 [Folic acid],inactive: 3.65
15,COC(=O)C(N)CS.Cl (stereo not given),inactive: 1.75
16,Cc1ccc(S(=O)(=O)NC(=O)NN2CCCCCC2)cc1 [Tolazamide],inactive: 1.9
17,CC(C)(CO)Cc1cc(C(C)(C)C)c(O)c(C(C)(C)C)c1,inactive: 3.06
18,O=S(=O)([O-])NC1CCCCC1.[Na+],inactive: 2.95
19,Cc1cc(C(C)(C)C)c(O)c(C(C)(C)C)c1,inactive: 3.46
20,CNCCCC12CCC(c3ccccc31)c1ccccc12.Cl [Maprotiline hydrochloride],inactive: 0.221
21,O=C(c1cc(Cc2n[nH]c(=O)c3ccccc23)ccc1F)N1CCN(C(=O)C2CC2)CC1 [Olaparib (AZD2281)],inactive: 2.18
22,CCCCCCCCCc1ccc(OCCOCCOCCOCCOCCOCCOCCOCCOCCO)cc1,inactive: 2
23,COC(c1ccccc1)(c1ccccc1)[C@H](Oc1nc(C)cc(C)n1)C(=O)O [Ambrisentan],inactive: 2.48
24,Cc1cccc(C)c1NC(=O)C(C)N.Cl (stereo not given),inactive: 0.723
25,Cc1cccc(C)c1NC(=O)C(C)N.Cl (stereo not given) [Tocainide hydrochloride],inactive: -0.451

row,SMILES,cell-cell fusion (z-score)
1,Cc1c(CN2CCN(C(=O)[C@H](C)O)CC2)sc2c(N3CCOCC3)nc(-c3cnc(N)nc3)nc12,inactive: 1.46
2,CCOCCOc1ccccc1C(N)=O,inactive: 1.58
3,Clc1ccccc1C(c1ccccc1)(c1ccccc1)n1ccnc1 [Clotrimazole],inactive: 0.907
4,CC(C)n1c(/C=C/[C@@H](O)C[C@@H](O)CC(=O)[O][Na])c(-c2ccc(F)cc2)c2ccccc21 [Fluvastatin sodium (Lescol)],inactive: 1.04
5,C[C@]12C=CC(=O)C=C1CC[C@H]1[C@@H]3C[C@@H](O)[C@](O)(C(=O)CO)[C@@]3(C)C[C@H](O)[C@@]12F [Triamcinolone],inactive: 1.08
6,CN1CCC(=C2c3ccccc3CC(=O)c3sccc32)CC1.O=C(O)/C=C/C(=O)O,inactive: 3.94
7,CCCCOC(=O)c1ccccc1C(=O)OCCCC,inactive: 3.63
8,COc1ccc2c(c1O)-c1c(OC)c(OC)cc3c1[C@H](C2)N(C)CC3,inactive: 1.48
9,C=C1CC[C@H](O)C/C1=C/C=C1\CCCC2(C)C1CCC2C(C)CCCC(C)C (stereo not given in full),inactive: 1.39
10,Cn1cc(-c2ccc3nnc(Sc4ccc5ncccc5c4)n3n2)cn1,inactive: 0.888
11,CC(C(=O)O)c1cccc(C(=O)c2ccccc2)c1 (stereo not given) [Ketoprofen],inactive: 2.54
12,O=P1(N(CCCl)CCCl)NCCCO1 (stereo not given) [Cyclophosphamide monohydrate],inactive: 1.78
13,Nc1cc2c(ncn2CCOCP(=O)(O)O)c(=O)[nH]1.O [PMEG hydrate],inactive: 2.74
14,C=CCNC(N)=S,inactive: 1.46
15,COc1ccc2c(c1)[nH]c1c(C)nccc12,inactive: 0.673
16,C1CNCCN1.C[C@]12CCC3c4ccc(OS(=O)(=O)O)cc4CCC3C1CCC2=O (stereo not given in full),inactive: 3.23
17,CCCCCCCCCCCCCCCC(=O)OC(CC(=O)O)C[N+](C)(C)C.[Cl-] (racemic) [Palmitoyl-DL-Carnitine chloride],inactive: -1.02
18,N=C1NCCC(C2NC(=O)/C(=C\NC(N)=O)NC(=O)C(CNC(=O)CC(N)CCCN)NC(=O)C(CO)NC(=O)C(N)CNC2=O)N1.O=S(=O)(O)O (stereo not given),inactive: 1.14
19,C=C[C@@]1(C)CC(=O)[C@@]2(O)[C@](C)(O1)[C@@H](O)[C@@H](O)C1C(C)(C)CC[C@H](O)[C@@]12C (stereo not given in full),inactive: -0.381
20,CC(=O)OCC(=O)[C@H]1CCC2C3CCC4=CC(=O)CC[C@]4(C)C3CC[C@@]21C (stereo not given in full),inactive: 1.03
21,C=C1/C(=C/C=C2\CCC[C@@]3(C)[C@H]2CC[C@H]3[C@H](C)/C=C/[C@@H](C)C(C)C)C[C@H](O)C[C@@H]1O [Doxercalciferol (Hectorol)],inactive: 1.44
22,CCCOc1ccc2nc(NC(=O)OC)[nH]c2c1,inactive: 3.07
23,N=C(N)c1ccc(OCCCCCOc2ccc(C(=N)N)cc2)cc1.O=[SH](=O)OCCO.O=[SH](=O)OCCO [Pentamidine isethionate],inactive: 2.06
24,NNCCc1ccccc1.O=S(=O)(O)O [Phenelzine sulfate],inactive: -1.19
25,NNCCc1ccccc1.O=S(=O)(O)O,inactive: 2.04
